From the supplement of paper PMC9549374
This is one part of the list. Cut-off read from the data, not from the text of the source: active = 2-fold of DMSO or more and inactive = the rest. Single values of this set are uncertain. Some low values are a fixed figure set by the source, not a measured ratio.

tested on: CM7/1-hgem mouse ES cell-derived cardiomyocytes; assay: maximal number of mAG-hGem(1/110)-positive cardiomyocytes over 96 h, fold-change vs DMSO; higher = more cardiomyocyte cell cycle activity; conditions: 1 µM; 96 (max over 12 h time points) h

SMILES | maximal number
O=C(O)c1cc(/N=N/c2ccc(O)c(C(=O)O)c2)ccc1O | inactive: 1
CC12CCC3C(CC3(C)C)C(C)(CCC1=O)O2 (stereo not drawn) | inactive: 0
O=C(/C=C/C=C/c1ccc2c(c1)OCO2)N1CCCCC1 | inactive: 1
O=C1c2cccc(O)c2C(=O)c2c(O)cccc21 | inactive: 1
COc1cc2c(cc1-c1coc3c4c(c(OC)cc3c1=O)OC(C)(C)C=C4)OCO2 | inactive: 1
O=C(NCC(O)CO)c1c(I)c(C(=O)NCC(O)CO)c(I)c(N(CCO)C(=O)CO)c1I (stereo not drawn) | inactive: 0.5
COC1=C(OC)C(=O)C(C/C=C(\C)CC/C=C(\C)CC/C=C(\C)CC/C=C(/C)CC/C=C(\C)CC/C=C(\C)CC/C=C(\C)CC/C=C(\C)CC/C=C(\C)CCC=C(C)C)=C(C)C1=O | inactive: 1
CCCCC(CC)COC(=O)CC(C(=O)OCC(CC)CCCC)S(=O)(=O)O (stereo not drawn) | inactive: 1
CO[C@H]1[C@H](O)[C@@H](O)[C@H](O)[C@H](O)[C@H]1O | inactive: 1
O=c1ccc2ccc(O)cc2o1 | inactive: 0
CCOc1ccc(Cc2nccc3cc(OCC)c(OCC)cc23)cc1OCC | inactive: 1
CCOc1ccc(C(=O)c2ccc(O)c(O)c2O)cc1 | inactive: 1
CC(=O)OCC(=O)[C@H]1CC[C@H]2[C@@H]3CCC4=CC(=O)CC[C@]4(C)[C@H]3CC[C@]12C | inactive: 0.5
CCOC(=O)N1CCC(=C2c3ccc(Cl)cc3CCc3cccnc32)CC1 | inactive: 1
O=C(c1cccnc1)N1CCOCC1 | inactive: 1
CCCN(CCC)C(=O)C(CCC(=O)O)NC(=O)c1ccccc1 (stereo not drawn) | inactive: 1
COc1ccc(C(=O)NCc2ccc(OCCN(C)C)cc2)cc1OC | inactive: 1
COc1cc([C@@H]2c3cc4c(cc3[C@@H](O[C@@H]3O[C@@H]5CO[C@@H](C)O[C@H]5[C@H](O)[C@H]3O)[C@H]3COC(=O)[C@H]23)OCO4)cc(OC)c1O | inactive: 0.5
CO[C@H]1C[C@H](O[C@H]2[C@H](C)[C@@H](O[C@@H]3O[C@H](C)C[C@H](N(C)C)[C@H]3OC(C)=O)[C@@H](C)C[C@@]3(CO3)C(=O)[C@H](C)[C@@H](OC(C)=O)[C@@H](C)[C@@H](C)OC(=O)[C@@H]2C)O[C@@H](C)[C@@H]1OC(C)=O | inactive: 1

Sorted by molar mass (low to high): some entries from above
SMILES | maximal number
O=c1ccc2ccc(O)cc2o1 | inactive: 0
CCOC(=O)N1CCC(=C2c3ccc(Cl)cc3CCc3cccnc32)CC1 | inactive: 1
COc1cc([C@@H]2c3cc4c(cc3[C@@H](O[C@@H]3O[C@@H]5CO[C@@H](C)O[C@H]5[C@H](O)[C@H]3O)[C@H]3COC(=O)[C@H]23)OCO4)cc(OC)c1O | inactive: 0.5

The list continues:

SMILES | maximal number
C=C1C2CC[C@@]3(C)[C@H](c4ccoc4)OC(=O)C[C@]13O[C@H]1CC(=O)C(C)(C)[C@H](C(O)C(=O)OC)[C@@]21C (stereo partly drawn) | inactive: 0
COc1ccc(-c2oc3cc(O[C@@H]4O[C@H](CO)[C@@H](O)[C@H](O)[C@H]4O)c(OC)c(O)c3c(=O)c2OC)cc1O | inactive: 1
COc1ccc2c(c1)OCC(Cc1ccc(O)c(OC)c1)C2=O (stereo not drawn) | inactive: 1
CCCCC/C=C\C/C=C\C/C=C\C/C=C\CCCC(=O)O | inactive: 1
Oc1ccc([C@H]2Oc3cc(O)cc(O)c3C[C@H]2O)cc1 | inactive: 1
CC(=O)OCC(OC(C)=O)C(OC(C)=O)C(OC(C)=O)C(OC(C)=O)C(COC(C)=O)OC(C)=O (stereo not drawn) | inactive: 1
CNC(=O)c1c(I)c(NC(C)=O)c(I)c(C(=O)O)c1I | inactive: 1
CO/N=C(\C(=O)N[C@@H]1C(=O)N2C(C(=O)O)=C(CSc3nnnn3C)CS[C@H]12)c1csc(N)n1 | inactive: 0.5
COC(=O)C[C@H]1C(C)(C)C(=O)[C@@H]2CC3=C4CC(=O)O[C@@H](c5ccoc5)[C@]4(C)CC[C@@H]3[C@@]1(C)C2=O | inactive: 1
O=C(O)CSCC(=O)NC1CCSC1=O (stereo not drawn) | inactive: 1
OCCN1CCN(CCCN2c3ccccc3Sc3ccc(C(F)(F)F)cc32)CC1 | inactive: 1
CC12CC3CC(C)(C1)CC(N)(C3)C2 | inactive: 0
O=S(=O)([O-])NC1CCCCC1.[Na+] | inactive: 1
Cn1nnc2c(C(N)=O)ncn2c1=O | inactive: 1
O=C(O[C@@H]1Cc2c(O)cc(O)cc2O[C@@H]1c1cc(O)c(=O)c2c(O)c(O)cc([C@H]3Oc4cc(O)cc(O)c4C[C@H]3O)c2c1)c1cc(O)c(O)c(O)c1 | inactive: 1
Oc1ccc2c(c1)OC[C@]1(O)Cc3cc(O)c(O)cc3[C@H]21 | inactive: 1
C=C1C(N)CC2CC1C2(C)C (stereo not drawn) [3-AMINO-beta-PINENE] | inactive: 1
COc1ccc2[nH]c([S+]([O-])Cc3ncc(C)c(OC)c3C)nc2n1 (stereo not drawn) | inactive: 1
Clc1ccc2c(c1)C(N1CCNCC1)=Nc1ccccc1O2 | inactive: 1
